Results as given in PubChem BioAssay AID504467 (National Center for Advancing Translational Sciences (NCATS), 2011).
Screen size: about 330,000 compounds; about 7,700 (2.3%) were called active. Inconclusive results, whose numbers are uncertain, are shown with a selection of clear calls. Calls follow the shape of the dose curve; as a rule, active = well fitted inhibition curve with a large enough effect; inconclusive = small, poorly fitted or top-dose-only effect, or effect the other way; inactive = flat fitted curve, though single readings scatter. Potencies beside an inconclusive call are fits to weak or partial responses and may not hold up.
Potency is read from the fitted curve at half-maximal effect.

Test: qHTS screen for small molecules that inhibit ELG1-dependent DNA repair in human embryonic kidney (HEK293T) cells expressing luciferase-tagged ELG1; also: nearly all actives have a fitted effect of over 55% in size
Conditions: HEK293T ELG1-luciferase reporter, luminescence, 16 h, DNA damage induced by 5-fluorouridine; series mostly up to 46.1 µM
In short: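 Cells (2,000 per well) received 5-fluorouridine plus test compound or DMSO and were incubated 16 hr at 37 °C, 5% CO2. Luciferase activity was read by luminescence 30 min after ONE-Glo addition; signal suppression marked inhibition of damage-induced ELG1 function.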
With `CCN1C(=O)[C@H]2[C@@H](c3ccc(-c4cccc(Cl)c4)cc3)N[C@@](CC(C)C)(C(=O)OC)[C@H]2C1=O` the Potency was “inactive”.
For `COC(=O)c1[nH]c2ccc(Br)cc2c1NC(=O)Oc1ccccc1`, the Potency was inconclusive: 16.4 µM [activator, partial curve].
In the case of `O=C(CSc1ccccc1)Nc1ccc(C(=O)Nc2ccc(O)cc2)cc1`, the Potency was inconclusive: 29.1 µM [activator, single point].
With `O=C(COC(=O)c1cc([N+](=O)[O-])ccc1NCc1ccccc1Cl)NCC(F)(F)F` the Potency was inconclusive: 29.1 µM [activator, single point].
With `CCOC(=O)COc1ccc(C2NC(C(=O)O)CS2)cc1` (configuration not stated) the Potency was “inactive”.
For `CN(C)S(=O)(=O)c1cccc(C(=O)Nc2ccc3c(c2)CCC3)c1`, the Potency was inconclusive: 2.59 µM [activator, partial curve].
In the case of `O=C(Nc1ccc2[nH]ncc2c1)C1CCC1`, the Potency was inconclusive: 8.2 µM [inhibitor, partial curve, poor fit].
With `COCCOc1ccc(C(F)(F)F)cc1NC(=O)CN1C(=O)NC(C)(c2ccc3c(c2)OCO3)C1=O` (configuration not stated) the Potency was inconclusive: 8.91 µM [inhibitor, partial curve].
With `O=C(c1ccc2c(c1)OCO2)N1CCN(c2ccc(Cl)cc2)CC1` the Potency was inconclusive: 23.1 µM [inhibitor, partial curve, poor fit].
With `COc1ccccc1C1C(C(=O)c2sc(C)nc2C)=C(O)C(=O)N1CCN1CCOCC1` (configuration not stated) the Potency was inconclusive: 29.1 µM [activator, single point].
For `Nn1c(SCC(=O)Nc2nnc(-c3ccccc3)o2)nnc1C1CC1`, the Potency was “inactive”.
In the case of `CCCCCOc1ccc(C(=O)CCC(=O)Nc2ccc(NC(C)=O)cc2)cc1`, the Potency was “inactive”.
For `O=C(CSc1nc(-c2ccco2)cc(C(F)(F)F)n1)Nc1ccc(C(=O)N2CCOCC2)cc1`, the Potency was inconclusive: 25.9 µM [inhibitor, partial curve, poor fit].
For `Cc1ccc(Oc2nccc(-c3ccc(Cl)cc3)n2)cc1`, the Potency was inconclusive: 14.6 µM [activator, partial curve, poor fit].
With `COc1cc(/C=C2\SC(=S)N(NC(=O)c3ccncc3)C2=O)ccc1O` the Potency was “inactive”.
For `Cc1cccc(N2C(=O)c3ccc(C(=O)Nc4cccc(C(=O)O)c4)cc3C2=O)c1`, the Potency was inconclusive: 20.6 µM [activator, partial curve].
For `CCc1cc2ccc(OC)cc2nc1SCC(=O)NNC(C)=O`, the Potency was inconclusive: 0.82 µM [inhibitor, single point].
With `Cc1ccc(OCC(=O)Nc2ccccc2C(=O)N2CCCC2)cc1` the Potency was “inactive”.
For `COc1cccc2c(C)nc(Nc3nc(CSc4nnc(C)s4)cc(=O)[nH]3)nc12`, the Potency was inconclusive: 6.31 µM [inhibitor, single point].
With `CCCN(CCC)CCCNC(=O)c1cc2cc3ccc(OC)cc3nc2o1` the Potency was “inactive”.
In the case of `O=C(N/N=C/C=C/c1ccco1)c1ccncc1`, the Potency was inconclusive: 23.1 µM [activator, single point].
For `COc1ccc(N2CC(C(=O)N/N=C/c3cc([N+](=O)[O-])ccc3O)CC2=O)cc1` (configuration not stated), the Potency was inconclusive: 7.3 µM [inhibitor, partial curve, poor fit].
In the case of `COc1ccc(CCNC(=O)C(=O)NCC2CCCN2S(=O)(=O)c2ccccc2)cc1` (configuration not stated), the Potency was inconclusive: 7.3 µM [inhibitor, partial curve].
In the case of `Cc1cc(N2CCN(C(=O)c3ccco3)CC2)n2nc(C)c(-c3ccccc3)c2n1`, the Potency was inconclusive: 20.6 µM [inhibitor, single point].
In the case of `O=C(CCc1nnc(CCCc2ccccc2)o1)NCC(F)(F)F`, the Potency was inconclusive: 20.6 µM [activator, single point].
For `CN1C(=O)c2cccc3c(S(=O)(=O)NCc4ccco4)ccc1c23`, the Potency was inconclusive: 18.4 µM [activator, partial curve, poor fit].
In the case of `CCN(CC(=O)Nc1ccc(NC(C)=O)cc1)C(=O)c1c(C)nn(-c2ccc(F)cc2)c1Cl`, the Potency was inconclusive: 29.1 µM [inhibitor, single point].
In the case of `CC1CCc2c(sc(NC(=O)c3ccc(N4C(=O)CCC4=O)cc3)c2C(N)=O)C1` (configuration not stated), the Potency was “inactive”.
In the case of `Cc1[nH]n(-c2ccccc2)c(=O)c1N=Nc1ccc2c(c1)OCCO2`, the Potency was inconclusive: 13 µM [activator, partial curve].
In the case of `COc1ccc([N+](=O)[O-])cc1/C=N/NC(=O)c1nonc1N`, the Potency was “inactive”.
For `COc1ccc(-c2cc(-c3ccc(C)cc3)n[nH]2)c(O)c1`, the Potency was inconclusive: 2.91 µM [activator, full curve].
In the case of `Cc1nc2ccccc2n1CC(=O)NC(C)C1CC2CCC1C2` (configuration not stated), the Potency was active: 5.17 µM.
For `CN1CCN(c2ccc(C(=O)NC3CCCCC3)cc2[N+](=O)[O-])CC1`, the Potency was inconclusive: 25.9 µM [activator, single point].
For `CCCn1c(CNc2ccc(Br)cc2)nc2ccccc21`, the Potency was “inactive”.
In the case of `CCOC(=O)CNC(=O)C1c2ccccc2Oc2ccccc21`, the Potency was “inactive”.
In the case of `CCCNC(=O)CN1CCC(c2nc3ccccc3[nH]2)CC1`, the Potency was “inactive”.
For `Cc1cc(=O)n2cc(-c3ccccc3)nc2[nH]1`, the Potency was inconclusive: 16.4 µM [activator, partial curve].
In the case of `C#CCOCCOCCOCCNc1nc(N2CCN(C(=O)[C@H](Cc3cc4ccccc4[nH]3)n3cc([C@@H](N)C(C)CC)nn3)CC2)nc(N2CCN(C(=O)[C@H](Cc3cc4ccccc4[nH]3)n3cc([C@@H](N)CC(C)C)nn3)CC2)n1` (some centres not stated), the Potency was “inactive”.
For `C=CCn1c(SCc2nc3ccccc3[nH]2)nnc1-c1cccc(OC)c1`, the Potency was inconclusive: 20.6 µM [inhibitor, partial curve].
With `O=C(Cc1cccs1)Nc1ccc(-c2nnc(-c3ccco3)o2)cc1` the Potency was “inactive”.
With `CCCCc1nc(N2CCOCC2)c(C#N)c2c1COC(C)(C)C2` the Potency was inconclusive: 12.6 µM [inhibitor, partial curve, poor fit].
In the case of `COc1ccc(Nc2cc(C(=O)NCCCN3CCOCC3)c3ccccc3n2)cc1`, the Potency was “inactive”.
With `COc1ccc(C(=O)Cn2c(C(=O)/C=C/c3ccccc3)nc3ccccc32)cc1` the Potency was inconclusive: 29.1 µM [inhibitor, single point].
With `CC(C)NC(=O)NC(=O)COC(=O)c1ccc(S(=O)(=O)NCc2ccco2)cc1` the Potency was “inactive”.
In the case of `COC(=O)c1ccccc1NC(=O)c1cc[n+]([O-])cc1`, the Potency was “inactive”.
In the case of `C=CCN1C(=O)C(CC(=O)Nc2ccc(OCCC)cc2)N(CCCN2CCN(Cc3ccccc3)CC2)C1=S` (configuration not stated), the Potency was inconclusive: 18.3 µM [inhibitor, single point].
In the case of `O=c1[nH]c(SCc2cccc(Cl)c2)nc2[nH]ncc12`, the Potency was inconclusive: 9.2 µM [activator, partial curve, poor fit].
With `O=C(Nc1ccc2c(c1)nc1n2CCN(Cc2ccccc2)C1)NC1CCCCC1` the Potency was inconclusive: 16.4 µM [activator, partial curve, poor fit].
For `COc1ccc(C(=O)/C=C/Nc2ccccn2)c(OC)c1`, the Potency was inconclusive: 7.3 µM [activator, partial curve].
In the case of `CC[C@]12c3[nH]c4cc(-c5ccco5)ccc4c3CCN1C(=O)[C@@H](CC(=O)NCc1ccc(OC)c(OC)c1)C[C@@H]2C(=O)N1CCN(C(=O)c2ccco2)CC1`, the Potency was inconclusive: 23.1 µM [inhibitor, single point].
In the case of `COc1ccc(CNC(=O)c2ccc(Cn3nc(C)c([N+](=O)[O-])c3C)o2)cc1`, the Potency was inconclusive: 4.11 µM [inhibitor, partial curve].
With `COc1cccc(C(=O)NCC(=O)N2CCC3(CC2)NCCc2[nH]cnc23)c1OC` the Potency was inconclusive: 18.3 µM [activator, single point].
With `NNc1nc2sc3c(c2c(=O)n1-c1ccccc1)CCCC3` the Potency was “inactive”.
For `O=S(=O)(c1ccc2c(c1)nc(COc1ccc(Cl)cc1)n2CC1CCCO1)N1CCOCC1` (configuration not stated), the Potency was inconclusive: 23.1 µM [inhibitor, single point].
With `CCN(CC)CCN(C(=O)c1ccc2ncsc2c1)c1nc2cc3c(cc2s1)OCO3` the Potency was inconclusive: 1.16 µM [activator, partial curve].
For `O=C(Nc1sc2c(c1C(=O)O)CCCCC2)c1cccs1`, the Potency was inconclusive: 2.91 µM [activator, partial curve, poor fit].
In the case of `CCOc1ccc(S(=O)(=O)N(CC)CC(=O)NCc2ccncc2)cc1`, the Potency was “inactive”.
For `COc1ccc(N(CC(=O)NCCSc2ccccc2)S(C)(=O)=O)cc1`, the Potency was “inactive”.
With `O=C(O)c1ccc(N=N/C(=N\Nc2ccc(C(=O)O)cc2)c2ccccc2)cc1` the Potency was inconclusive: 5.62 µM [activator, single point].
For `CN(C(=S)NC(=O)C1(C)CC1(Cl)Cl)c1ccccc1` (configuration not stated), the Potency was “inactive”.
With `Cc1ccc(-c2nc(N/N=C/c3cccnc3)c3ccccc3n2)cc1` the Potency was inconclusive: 0.731 µM [activator, full curve].
For `O=C(CCC(=O)N1CCN(S(=O)(=O)c2ccc(Cl)cc2)CC1)Nc1ccc(Cl)cc1Cl`, the Potency was inconclusive: 20.6 µM [inhibitor, single point].
With `CSc1ccc(/C=N/NC(=O)c2cccc(O)c2)cc1` the Potency was inconclusive: 5.8 µM [activator, full curve].
With `CCc1ccccc1N(CC)C(=O)C1CCN(c2ncnc3c2nc2n3CCCCC2)CC1` the Potency was active: 14.6 µM.
For `CCCn1c(SCC(=O)Nc2ccccc2CC)nnc1C(C)C`, the Potency was “inactive”.
For `CCOC(=O)C1=C(C)NC(C)=C(C(=O)OCC)C1c1ccc([N+](=O)[O-])s1`, the Potency was inconclusive: 29.1 µM [inhibitor, single point].
For `O=C(NCC(=O)N1CCCCC1)c1ccc2ccccc2c1`, the Potency was inconclusive: 16.4 µM [activator, partial curve].
